Reference: article PMC4755545

The chains behind the UniProt entries cited, without tags or fusion partners.
UniProt O42839: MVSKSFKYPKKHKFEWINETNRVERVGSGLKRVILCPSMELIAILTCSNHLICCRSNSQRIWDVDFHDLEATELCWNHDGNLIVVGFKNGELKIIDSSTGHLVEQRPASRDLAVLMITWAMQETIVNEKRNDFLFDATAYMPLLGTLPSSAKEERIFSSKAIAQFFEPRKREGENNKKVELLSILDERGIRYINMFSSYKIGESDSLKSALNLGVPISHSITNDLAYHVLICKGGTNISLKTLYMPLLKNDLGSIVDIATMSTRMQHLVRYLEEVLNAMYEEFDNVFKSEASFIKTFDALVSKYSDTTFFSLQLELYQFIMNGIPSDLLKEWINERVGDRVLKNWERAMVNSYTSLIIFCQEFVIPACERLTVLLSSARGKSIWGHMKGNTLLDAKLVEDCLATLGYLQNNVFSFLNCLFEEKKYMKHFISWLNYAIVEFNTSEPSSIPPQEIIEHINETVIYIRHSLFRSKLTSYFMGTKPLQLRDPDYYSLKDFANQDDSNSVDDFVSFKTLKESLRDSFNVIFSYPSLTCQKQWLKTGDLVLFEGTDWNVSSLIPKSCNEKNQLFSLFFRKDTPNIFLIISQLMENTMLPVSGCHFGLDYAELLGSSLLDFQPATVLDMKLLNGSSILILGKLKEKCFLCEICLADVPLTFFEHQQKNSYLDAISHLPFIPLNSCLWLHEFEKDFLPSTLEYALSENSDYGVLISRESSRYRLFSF
UniProt O59767: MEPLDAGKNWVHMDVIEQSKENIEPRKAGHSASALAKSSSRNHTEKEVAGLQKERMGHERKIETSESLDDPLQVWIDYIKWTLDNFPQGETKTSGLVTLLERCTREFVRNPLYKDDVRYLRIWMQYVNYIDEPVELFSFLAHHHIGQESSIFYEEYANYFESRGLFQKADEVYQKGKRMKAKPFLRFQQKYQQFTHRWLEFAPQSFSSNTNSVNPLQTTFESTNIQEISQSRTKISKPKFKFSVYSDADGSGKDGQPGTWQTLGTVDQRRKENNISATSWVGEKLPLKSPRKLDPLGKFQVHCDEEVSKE

Molecular target: TAP-tagged Lid1 (Apc4), subunit of the APC/C (S. pombe) (UniProt O42839)
Assay: affinity purification with mass spectrometry; large scale Lid1/Apc4 pull-down on IgG-Dynabeads from lysates of cycling and mitotically arrested (nda3, 18°C) cells, glycine elution, MudPIT

- binding: binds
Substance: Mad3p found in Apc4-TAP purifications (from UniProt O59767 1-310)

No constants are given. Whether binding was seen depends on the method and setting. Binding seen in cells or lysates may run through a third protein. A yes stands for co-enrichment or nearness to the bait. Other partners may have been found.
